Patent US20260193265A1, “Phyllochlorin analogues suitable for use in photodynamic therapy (PDT)” (RMW CHO Group Limited, priority 2022, published 2026)
Structures can show the parent of a compound that is named as a salt.

system: Human ovarian cancer cell line SKOV3; test: Therapeutic index (phototoxicity IC90 vs dark toxicity IC10); assay type: cell-based; details: calculated using phototoxicity IC90 vs dark toxicity IC10, SKOV3 cells

Row | Structure (SMILES) | Therapeutic Index
1 | C=Cc1c(C)c2cc3nc(c(C)c4cc(C)c(cc5nc(cc1[nH]2)C(C)=C5CC)[nH]4)[C@@H](CCCO)[C@@H]3C [Compound 1, 3-((7S,8S)-18-ethyl-2,5,8,12,17-pentamethyl-13-vinyl-7H,8H-porphyrin-7-yl)propan-1-ol] | 384.17
2 | C=Cc1c(C)c2cc3nc(c(C)c4cc(C)c(cc5nc(cc1[nH]2)C(C)=C5CC)[nH]4)[C@@H](CCCOC(C)=O)[C@@H]3C [Compound 2, 3-((7S,8S)-18-ethyl-2,5,8,12,17-pentamethyl-13-vinyl-7H,8H-porphyrin-7-yl)propyl acetate] | 139.44
3 | C=Cc1c(C)c2cc3nc(c(C)c4cc(C)c(cc5nc(cc1[nH]2)C(C)=C5CC)[nH]4)[C@@H](CCCSCCCS[C@@H]1O[C@H](CO)[C@@H](O)[C@H](O)[C@H]1O)[C@@H]3C [Compound 4, (2S,3R,4S,5S,6R)-2-((3-((3-((7S,8S)-18-ethyl-2,5,8,12,17-pentamethyl-13-vinyl-7H,8H-porphyrin-7-yl)propyl)thio)propyl)thio)-6-(hydroxymethyl)tetrahydro-2H-pyran-3,4,5-triol] | 330.43
4 | C=Cc1c(C)c2cc3nc(c(C)c4cc(C)c(cc5nc(cc1[nH]2)C(C)=C5CC)[nH]4)[C@@H](CCCS[C@@H]1O[C@H](CO)[C@@H](O)[C@H](O)[C@H]1O)[C@@H]3C [Compound 5] | 263.60
5 | C=Cc1c(C)c2cc3nc(c(C)c4cc(C)c(cc5nc(cc1[nH]2)C(C)=C5CC)[nH]4)[C@@H](CCCN)[C@@H]3C [Compound 7, phyllochlorin 3-aminopropyl] | 231.00
6 | C=Cc1c(C)c2cc3nc(c(C)c4cc(C)c(cc5nc(cc1[nH]2)C(C)=C5CC)[nH]4)[C@@H](CCCNC(=O)[C@@H](N)C(C)C)[C@@H]3C [Compound 8, phyllochlorin 3-aminopropyl-valine amide hydrochloride] | 132.11
7 | C=Cc1c(C)c2cc3nc(c(C)c4cc(C)c(cc5nc(cc1[nH]2)C(C)=C5CC)[nH]4)[C@@H](CCC[n+]1ccccc1)[C@@H]3C [Compound 9, phyllochlorin 3-pyridiniumpropyl iodide] | 818.33
8 | C=Cc1c(C)c2cc3nc(c(C)c4cc(C)c(cc5nc(cc1[nH]2)C(C)=C5CC)[nH]4)[C@@H](CCC[P+](c1ccccc1)(c1ccccc1)c1ccccc1)[C@@H]3C [Compound 10, phyllochlorin 3-triphenylphosphoniumpropyl iodide] | 1,506.67
